Measurements from PubChem BioAssay AID328 (DTP/NCI, 2004).
The list is a part of this screen's results and no random one: it gathers tests that were run many times, whatever their T/C, doses with no T/C, and many T/C values between a quarter and a half above the control. Other doses and runs of a compound stand elsewhere. T/C: endpoint of the treated group in % of that of the vehicle group. Some entries give survivors of the animals treated and no T/C: the source files T/C as zero there, which appears to mark a toxic dose or a test without result, not a measured value. Some doses without a T/C left all or most animals alive at the check, yet need not have been tolerated: survival well below the control is almost never listed, so the zero probably covers shortened survival too. Counts of survivors are from the toxicity check (mostly the fifth day) where no day follows; animals may have died later. Schedules are NCI's codes, read here as Q, the interval in days (D) or hours (H), X, the number of doses. Some entries were tested several times; their values stand side by side, smallest first. Where survival is the endpoint, the PubChem record calls one and a half times the control and up active, and a quarter to a half above the control has no call in these data; cut-offs in other NCI protocols can differ. Some T/C values carry the count of animals alive at the toxicity check (mostly the fifth day); where none is given, no animal had died by that day.

System: BDF1 mice, P388 leukemia ip, median survival T/C
Assay: NCI In Vivo Anticancer Drug Screen. Data for tumor model P388 Leukemia (intraperitoneal) in B6D2F1 (BDF1) mice
Details: T/C endpoint: median survival time, higher T/C = longer survival
Method in brief: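 Compound-treated tumour-bearing mice were compared with vehicle-treated controls. Survival was recorded, and the value is the treated-group measurement divided by the control-group measurement (T/C).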

[1] = dose: 25.0 mg/kg/injection, schedule: Q01DX009 (ip), vehicle: saline
[2] = dose: 25.0 mg/kg/injection, schedule: Q01DX009 (ip), vehicle: water
[3] = dose: 200.0 mg/kg/injection, schedule: Q04DX003 (ip), vehicle: saline with Tween-80
[4] = dose: 12.5 mg/kg/injection, schedule: Q01DX009 (ip), vehicle: saline
[5] = dose: 100.0 mg/kg/injection, schedule: Q04DX003 (ip), vehicle: saline sonified

CCN(CC)CCNC(=S)N/N=C(C)\C(C)=N/NC(=S)NCCN(CC)CC
survivor count [1]: 4 of 6

O=C1c2ccccc2C(=O)N1CC[P+](c1ccccc1)(c1ccccc1)c1ccccc1
T/C (dose: 1.56 mg/kg/injection, schedule: Q01DX009 (ip), vehicle: water): 125 % of control | T/C (dose: 3.12 mg/kg/injection, schedule: Q01DX009 (ip), vehicle: water): 135 % of control | T/C [2]: 127 % of control | survivor count [2]: 1 of 6 | T/C (dose: 25.0 mg/kg/injection, schedule: Q04DX003 (ip), vehicle: water, evaluated on day 23): 125 % of control | T/C (dose: 25.0 mg/kg/injection, schedule: Q04DX003 (ip), vehicle: water, evaluated on day 30): 137 % of control [5 of 6 alive] | survivor count (dose: 50.0 mg/kg/injection, schedule: Q01DX009 (ip), vehicle: Klucel (hydroxypropylcellulose) (HPC)): 3 of 6 | survivor count (dose: 50.0 mg/kg/injection, schedule: Q01DX009 (ip), vehicle: water): 4 of 6 and 6 of 6 | survivor count (dose: 50.0 mg/kg/injection, schedule: Q04DX003 (ip), vehicle: water): 3 of 6 | survivor count (dose: 100.0 mg/kg/injection, schedule: Q01DX009 (ip), vehicle: water): 4 of 6 | survivor count (dose: 200.0 mg/kg/injection, schedule: Q01DX009 (ip), vehicle: water): 0 of 6 | survivor count (dose: 400.0 mg/kg/injection, schedule: Q01DX009 (ip), vehicle: water): 0 of 6

CCOC(=O)C1C(=O)C(C(=O)Nc2ccccc2)C(=O)C(C(=O)OCC)C1c1ccc(O)cc1 (stereo not given)
survivor count [3]: 6 of 6

CC(=O)O.[Au].c1ccc([PH+](c2ccccc2)c2ccccc2)cc1
survivor count [3]: 1 of 6 | survivor count (dose: 400.0 mg/kg/injection, schedule: Q04DX003 (ip), vehicle: saline with Tween-80): 0 of 6

CN(C)c1ccc(C2N(Cc3ccccc3)CCC3CCCCN32)cc1 (stereo not given)
survivor count (dose: 200.0 mg/kg/injection, schedule: Q01DX009 (ip), vehicle: saline with Tween-80): 6 of 6

Cc1ccc(N(OC(=O)c2ccccc2)C(C)(C)C)cc1
survivor count (dose: 200.0 mg/kg/injection, schedule: Q04DX002 (ip), vehicle: saline with Tween-80): 6 of 6 | survivor count (dose: 400.0 mg/kg/injection, schedule: Q04DX002 (ip), vehicle: saline with Tween-80): 1 of 6

COc1cccc2c1C(=O)c1c(O)c3c(c(O)c1C2=O)C[C@@](O)(C(=O)CO)C[C@@H]3OC1CC(NC(=S)Nc2ccc(F)cc2)C(O)C(C)O1 (stereo not given in full)
T/C (dose: 6.25 mg/kg/injection, schedule: Q01DX009 (ip), vehicle: saline): 133 % of control | T/C [4]: 127 % of control | survivor count [4]: 6 of 6 | survivor count [1]: 5 of 6 | T/C (dose: 50.0 mg/kg/injection, schedule: Q01DX009 (ip), vehicle: saline): 142 % of control

O=C1C(Cl)=C(Cl)C(=O)C2=C1C1c3ccccc3C2c2ccccc21
T/C [5]: 131 % of control

ClCCCN1CCN(CCCCl)CC1
T/C (dose: 50.0 mg/kg/injection, schedule: Q01DX009 (ip), vehicle: distilled water + alcohol): 144 % of control | survivor count (dose: 200.0 mg/kg/injection, schedule: Q01DX009 (ip), vehicle: distilled water + alcohol): 0 of 6

CC1(c2ccc(Cl)cc2)NC(=O)NC1=O (stereo not given)
survivor count [5]: 6 of 6

C[n+]1cc2cc3c(cc2c2ccccc21)OCO3
T/C (dose: 3.13 mg/kg/injection, schedule: Q01DX009 (ip), vehicle: other): 132 % of control | T/C (dose: 6.25 mg/kg/injection, schedule: Q01DX009 (ip), vehicle: other): 134 % of control | T/C (dose: 12.5 mg/kg/injection, schedule: Q01DX009 (ip), vehicle: other): 132 % of control | survivor count (dose: 25.0 mg/kg/injection, schedule: Q01DX009 (ip), vehicle: other): 6 of 6 | survivor count (dose: 50.0 mg/kg/injection, schedule: Q01DX009 (ip), vehicle: other): 5 of 6 | survivor count (dose: 100.0 mg/kg/injection, schedule: Q01DX009 (ip), vehicle: other): 0 of 6

Cc1noc(C)c1CC1(Cc2c(C)noc2C)C(=O)CCC2(C)CCCC=C21 (stereo not given)
survivor count (dose: 400.0 mg/kg/injection, schedule: Q01DX009 (ip), vehicle: Klucel (hydroxypropylcellulose) (HPC)): 6 of 6
